This test has as its target T1, human CD40L (hCD40L antigen) (human, UniProt P29965 113-261, limits assumed).
T1 sequence (looked up): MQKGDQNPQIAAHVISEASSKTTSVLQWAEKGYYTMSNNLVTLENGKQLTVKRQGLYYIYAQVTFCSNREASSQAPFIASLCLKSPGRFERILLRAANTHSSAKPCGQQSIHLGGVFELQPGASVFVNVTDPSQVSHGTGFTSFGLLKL
In words: ELISA, bacterial lysate on immobilized human CD40L, anti-Myc detection.

These are yes or no findings as the source states them, for the method shown. Some entries that bind do so weakly or less than the wild type.

B1: clone 332 (designed binder)
chain: MIPGGLSEAKPATPEIQEIVDKVKPQLEEKTGETYGKLEAVQYKTQVVLEDVWGVWAGTNYYIKVRAGDNKYMHLKVFKSLEFQHRTFNHEDLVLTGYQVDKNKDDELTGF
Turning to B1, the binding entry was “binds”.

B2: clone 341 (designed binder)
chain: MIPGGLSEAKPATPEIQEIVDKVKPQLEEKTGETYGKLEAVQYKTQVVYQKVITWWQGTNYYIKVRAGDNKYMHLKVFKSLYWENHRGHVEDLVLTGYQVDKNKDDELTGF
Take B2: the binding result is given as “binds”.

B3: clone 227 (designed binder)
chain: MIPGGLSEAKPATPEIQEIVDKVKPQLEEKTGETYGKLEAVQYKTQVVHDVFYDQKAGTNYYIKVRAGDNKYMHLKVFKSLKWWYRIGNPEDLVLTGYQVDKNKDDELTGF
Take B3: the binding result is reported as “binds”.

B4: clone 243 (designed binder)
chain: MIPGGLSEAKPATPEIQEIVDKVKPQLEEKTGETYGKLEAVQYKTQVVFTYQISYTVGTNYYIKVRAGDNKYMHLKVFKSLRWRYPARKPEDLVLTGYQVDKNKDDELTGF
B4: the binding entry is “binds”.

B5: clone 241 (designed binder)
chain: MIPGGLSEAKPATPEIQEIVDKVKPQLEEKTGETYGKLEAVQYKTQVVVRVEPTPNDGTNYYIKVRAGDNKYMHLKVFKSLPLVQELWGFEDLVLTGYQVDKNKDDELTGF
For B5, the binding result is recorded as “binds”.

B6: clone 346 (designed binder)
chain: MIPGGLSEAKPATPEIQEIVDKVKPQLEEKTGETYGKLEAVQYKTQVVWTADWLWTVGTNYYIKVRAGDNKYMHLKVFKSLYDPSEWFPREDLVLTGYQVDKNKDDELTGF
On to B6, for which the binding result was “binds”.

B7: clone 328 (designed binder)
chain: MIPGGLSEAKPATPEIQEIVDKVKPQLEEKTGETYGKLEAVQYKTQVVVYKIITFWSGTNYYIKVRAGDNKYMHLKVFKSLEYPPVQQVLEDLVLTGYQVDKNKDDELTGF
For B7, the binding result is reported as “binds”.

B8: clone 343 (designed binder)
chain: MIPGGLSEAKPATPEIQEIVDKVKPQLEEKTGETYGKLEAVQYKTQVVATPEKKYVVGTNYYIKVRAGDNKYMHLKVFKSLWNANILRYWEDLVLTGYQVDKNKDDELTGF
On to B8, for which the binding result is recorded as “binds”.

B9: clone 245 (designed binder)
chain: MIPGGLSEAKPATPEIQEIVDKVKPQLEEKTGETYGKLEAVQYKTQVVTALAWNTQAGTNYYIKVRAGDNKYMHLKVFKSLPWLYRQKSDEDLVLTGYQVDKNKDDELTGF
For the molecule B9, the binding result is on record as “binds”.

B10: clone 340 (designed binder)
chain: MIPGGLSEAKPATPEIQEIVDKVKPQLEEKTGETYGKLEAVQYKTQVVWWDIPWIWVGTNYYIKVRAGDNKYMHLKVFKSLQNDELYPYKEDLVLTGYQVDKNKDDELTGF
In the case of B10, the binding entry is “binds”.

B11: clone 333 (designed binder)
chain: MIPGGLSEAKPATPEIQEIVDKVKPQLEEKTGETYGKLEAVQYKTQVVWLPWTVELIGTNYYIKVRAGDNKYMHLKVFKSLGEIWSAKHKEDLVLTGYQVDKNKDDELTGF
Turning to B11, the binding result is given as “binds”.

B12: clone 244 (designed binder)
chain: MIPGGLSEAKPATPEIQEIVDKVKPQLEEKTGETYGKLEAVQYKTQVVRENWYGEFAGTNYYIKVRAGDNKYMHLKVFKSLLYIYRHPNYEDLVLTGYQVDKNKDDELTGF
Consider B12, for which the binding entry is recorded as “binds”.

B13: clone 347 (designed binder)
chain: MIPGGLSEAKPATPEIQEIVDKVKPQLEEKTGETYGKLEAVQYKTQVVSFQREHYSWGTNYYIKVRAGDNKYMHLKVFKSLFDIFYFNPIEDLVLTGYQVDKNKDDELTGF
Take B13: the binding entry is recorded as “binds”.

B14: clone 337 (designed binder)
chain: MIPGGLSEAKPATPEIQEIVDKVKPQLEEKTGETYGKLEAVQYKTQVVWWQENAEWIGTNYYIKVRAGDNKYMHLKVFKSLGYAVFHKYLEDLVLTGYQVDKNKDDELTGF
With B14, the binding result is recorded as “binds”.

B15: clone 338 (designed binder)
chain: MIPGGLSEAKPATPEIQEIVDKVKPQLEEKTGETYGKLEAVQYKTQVVSYDPVYQDTGTNYYIKVRAGDNKYMHLKVFKSLFFHRTSVVYEDLVLTGYQVDKNKDDELTGF
In the case of B15, the binding entry is reported as “binds”.

B16: clone 335 (designed binder)
chain: MIPGGLSEAKPATPEIQEIVDKVKPQLEEKTGETYGKLEAVQYKTQVVLFEVLQGSSGTNYYIKVRAGDNKYMHLKVFKSLGEIVWYQVEEDLVLTGYQVDKNKDDELTGF
In the case of B16, the binding result is given as “binds”.

B17: clone 336 (designed binder)
chain: MIPGGLSEAKPATPEIQEIVDKVKPQLEEKTGETYGKLEAVQYKTQVVPYSWQHEVVGTNYYIKVRAGDNKYMHLKVFKSLIVFYLQEYYEEDLVLTGYQVDKNKDDELTGF
Turning to B17, the binding result is listed as “binds”.

B18: clone 339 (designed binder)
chain: MIPGGLSEAKPATPEIQEIVDKVKPQLEEKTGETYGKLEAVQYKTQVVRVFDTPLAAGTNYYIKVRAGDNKYMHLKVFKSLPWQYRNNPEEDLVLTGYQVDKNKDDELTGF
For B18, the binding entry was “binds”.

B19: clone 239 (designed binder)
chain: MIPGGLSEAKPATPEIQEIVDKVKPQLEEKTGETYGKLEAVQYKTQVVGWIKVDNVLGTNYYIKVRAGDNKYMHLKVFKSLWQDHHNVKREDLVLTGYQVDKNKDDELTGF
B19: the binding result was “binds”.

B20: clone 236 (designed binder)
chain: MIPGGLSEAKPATPEIQEIVDKVKPQLEEKTGETYGKLEAVQYKTQVVNSLGVSEWVGTNYYIKVRAGDNKYMHLKVFKSLPYWYRKNNLEDLVLTGYQVDKNKDDELTGF
As to B20, the binding entry was “binds”.

B21: clone 344 (designed binder)
chain: MIPGGLSEAKPATPEIQEIVDKVKPQLEEKTGETYGKLEAVQYKTQVVTSERLWILYGTNYYIKVRAGDNKYMHLKVFKSLTPRYVPLNPEDLVLTGYQVDKNKDDELTGF
On to B21, for which the binding entry is given as “binds”.

B22: clone 238 (designed binder)
chain: MIPGGLSEAKPATPEIQEIVDKVKPQLEEKTGETYGKLEAVQYKTQVVYYRQLKFNTGTNYYIKVRAGDNKYMHLKVFKSLFLHRKPQDREDLVLTGYQVDKNKDDELTGF
Turning to B22, the binding entry was “binds”.

B23: clone 334 (designed binder)
chain: MIPGGLSEAKPATPEIQEIVDKVKPQLEEKTGETYGKLEAVKYKTQVVQHFTWDWFWGTNYYIKVRAGDNKYMHLKVFKSLPEYKPVDHTEDLVLTGYQVDKNKDDELTGF
On to B23, for which the binding entry was “binds”.

B24: clone 330 (designed binder)
chain: MIPGGLSEAKPATPEIQEIVDKVKPQLEEKTGETYGKLEAVQYKTQVVKTWEDTVVAGTNYYIKVRAGDNKYMHLKVFKSLEYLYRPLNPEDLVLTGYQVDKNKDDELTGF
As for B24, the binding result is listed as “binds”.

B25: clone 240 (designed binder)
chain: MIPGGLSEAKPATPEIQEIVDKVKPQLEEKTGETYGKLEAVQYKTQVVTAYYIHVNAGTNYYIKVRAGDNKYMHLKVFKSLPYGYRAKAPEDLVLTGYQVDKNKDDELTGF
Consider B25, for which the binding entry is listed as “binds”.

B26: clone 242 (designed binder)
chain: MIPGGLSEAKPATPEIQEIVDKVKPQLEEKTGETYGKLEAVQYKTQVVDLNSSVWYQGTNYYIKVRAGDNKYMHLKVFKSLYWLLEIEHREDLVLTGYQVDKNKDDELTGF
With B26, the binding entry is recorded as “binds”.

B27: clone 331 (designed binder)
chain: MIPGGLSEAKPATPEIQEIVDKVKPQLEEKTGETYGKLEAVQYKTQVVLDQHHVYQVGTNYYIKVRAGDNKYMHLKVFKSLALLIHHDPWEDLVLTGYQVDKNKDDELTGF
As for B27, the binding entry was “binds”.

B28: clone 329 (designed binder)
chain: MIPGGLSEAKPATPEIQEIVDKVKPQLEEKTGETYGKLEAVQYKTQVVGWIQRHNLIGTNYYIKVRAGDNKYMHLKVFKSLYSEPPPVQNEDLVLTGYQVDKNKDDELTGF
In the case of B28, the binding entry is “binds”.

B29: clone 342 (designed binder)
chain: MIPGGLSEAKPATPEIQEIVDKVKPQLEEKTGETYGKLEAVQYKTQVVQWIKWGNILGTNYYIKVRAGDNKYMHLKVFKSLYEAIERWHGEDLVLTGYQVDKNKDDELTGF
Turning to B29, the binding result is “binds”.

B30: clone 345 (designed binder)
chain: MIPGGLSEAKPATPEIQEIVDKVKPQLEEKTGETYGKLEAVQYKTQVVEHHSQPLAHGTNYYIKVRAGDNKYMHLKVFKSLPYHAFDWYWEDLVLTGYQVDKNKDDELTGF
Turning to B30, the binding entry is given as “binds”.

B31: clone 348 (designed binder)
chain: MIPGGLSEAKPATPEIQEIVDKVKPQLEEKTGETYGKLEAVQYKTQVVGKTWHKHNRGTNYYIKVRAGDNKYMHLKVFKSLNLYFFFYQTEDLVLTGYQVDKNKDDELTGF
For the molecule B31, the binding entry is on record as “binds”.

B32: clone 237 (designed binder)
chain: MIPGGLSEAKPATPEIQEIVDKVKPQLEEKTGETYGKLEAVQYKTQVVVYRIVSWWRGTNYYIKVRAGDNKYMHLKVFKSLASDIYLRIDEDLVLTGYQVDKNKDDELTGF
As to B32, the binding result is given as “binds”.

B33: clone 228 (designed binder)
chain: MIPGGLSEAKPATPEIQEIVDKVKPQLEEKTGETYGKLEAVQYKTQVVPFKIITVWHGTNYYIKVRAGDNKYMHLKVFKSLLERFNFHGEEDLVLTGYQVDKNKDDELTGF
Take B33: the binding entry is “binds”.

For the origin of these results see patent publication EP4477665A1 (AffyXell Therapeutics Co., Ltd., dated 2024).
